Measurements: the supplement of paper PMC12067093, “Discovery and optimisation of a covalent ligand for TRIM25 and its application to targeted protein ubiquitination” (Chemical Science, 2025)
The other results are listed elsewhere or left out.

The chains behind the UniProt entries cited, without tags or fusion partners. Where a name states a change or a piece, a line headed by the entry shows the natural chain unless it says otherwise.
UniProt P07384: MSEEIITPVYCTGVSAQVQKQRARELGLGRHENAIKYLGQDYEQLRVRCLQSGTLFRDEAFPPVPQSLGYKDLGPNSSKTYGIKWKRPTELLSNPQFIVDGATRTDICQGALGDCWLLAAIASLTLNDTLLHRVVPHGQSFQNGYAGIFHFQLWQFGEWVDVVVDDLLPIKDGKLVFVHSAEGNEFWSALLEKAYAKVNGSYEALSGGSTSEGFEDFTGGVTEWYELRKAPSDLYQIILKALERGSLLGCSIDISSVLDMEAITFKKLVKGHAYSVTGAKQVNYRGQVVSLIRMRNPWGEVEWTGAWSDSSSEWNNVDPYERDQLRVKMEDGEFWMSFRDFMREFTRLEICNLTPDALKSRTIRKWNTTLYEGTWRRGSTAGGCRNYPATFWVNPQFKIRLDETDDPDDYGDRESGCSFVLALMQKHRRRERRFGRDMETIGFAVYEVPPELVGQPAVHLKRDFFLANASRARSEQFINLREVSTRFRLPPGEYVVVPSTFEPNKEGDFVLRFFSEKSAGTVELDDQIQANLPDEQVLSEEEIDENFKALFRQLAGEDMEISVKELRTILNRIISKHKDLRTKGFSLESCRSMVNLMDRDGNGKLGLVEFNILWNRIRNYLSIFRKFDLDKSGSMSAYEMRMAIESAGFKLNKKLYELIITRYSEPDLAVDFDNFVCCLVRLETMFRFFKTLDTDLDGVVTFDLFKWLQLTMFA
UniProt Q9UKL3: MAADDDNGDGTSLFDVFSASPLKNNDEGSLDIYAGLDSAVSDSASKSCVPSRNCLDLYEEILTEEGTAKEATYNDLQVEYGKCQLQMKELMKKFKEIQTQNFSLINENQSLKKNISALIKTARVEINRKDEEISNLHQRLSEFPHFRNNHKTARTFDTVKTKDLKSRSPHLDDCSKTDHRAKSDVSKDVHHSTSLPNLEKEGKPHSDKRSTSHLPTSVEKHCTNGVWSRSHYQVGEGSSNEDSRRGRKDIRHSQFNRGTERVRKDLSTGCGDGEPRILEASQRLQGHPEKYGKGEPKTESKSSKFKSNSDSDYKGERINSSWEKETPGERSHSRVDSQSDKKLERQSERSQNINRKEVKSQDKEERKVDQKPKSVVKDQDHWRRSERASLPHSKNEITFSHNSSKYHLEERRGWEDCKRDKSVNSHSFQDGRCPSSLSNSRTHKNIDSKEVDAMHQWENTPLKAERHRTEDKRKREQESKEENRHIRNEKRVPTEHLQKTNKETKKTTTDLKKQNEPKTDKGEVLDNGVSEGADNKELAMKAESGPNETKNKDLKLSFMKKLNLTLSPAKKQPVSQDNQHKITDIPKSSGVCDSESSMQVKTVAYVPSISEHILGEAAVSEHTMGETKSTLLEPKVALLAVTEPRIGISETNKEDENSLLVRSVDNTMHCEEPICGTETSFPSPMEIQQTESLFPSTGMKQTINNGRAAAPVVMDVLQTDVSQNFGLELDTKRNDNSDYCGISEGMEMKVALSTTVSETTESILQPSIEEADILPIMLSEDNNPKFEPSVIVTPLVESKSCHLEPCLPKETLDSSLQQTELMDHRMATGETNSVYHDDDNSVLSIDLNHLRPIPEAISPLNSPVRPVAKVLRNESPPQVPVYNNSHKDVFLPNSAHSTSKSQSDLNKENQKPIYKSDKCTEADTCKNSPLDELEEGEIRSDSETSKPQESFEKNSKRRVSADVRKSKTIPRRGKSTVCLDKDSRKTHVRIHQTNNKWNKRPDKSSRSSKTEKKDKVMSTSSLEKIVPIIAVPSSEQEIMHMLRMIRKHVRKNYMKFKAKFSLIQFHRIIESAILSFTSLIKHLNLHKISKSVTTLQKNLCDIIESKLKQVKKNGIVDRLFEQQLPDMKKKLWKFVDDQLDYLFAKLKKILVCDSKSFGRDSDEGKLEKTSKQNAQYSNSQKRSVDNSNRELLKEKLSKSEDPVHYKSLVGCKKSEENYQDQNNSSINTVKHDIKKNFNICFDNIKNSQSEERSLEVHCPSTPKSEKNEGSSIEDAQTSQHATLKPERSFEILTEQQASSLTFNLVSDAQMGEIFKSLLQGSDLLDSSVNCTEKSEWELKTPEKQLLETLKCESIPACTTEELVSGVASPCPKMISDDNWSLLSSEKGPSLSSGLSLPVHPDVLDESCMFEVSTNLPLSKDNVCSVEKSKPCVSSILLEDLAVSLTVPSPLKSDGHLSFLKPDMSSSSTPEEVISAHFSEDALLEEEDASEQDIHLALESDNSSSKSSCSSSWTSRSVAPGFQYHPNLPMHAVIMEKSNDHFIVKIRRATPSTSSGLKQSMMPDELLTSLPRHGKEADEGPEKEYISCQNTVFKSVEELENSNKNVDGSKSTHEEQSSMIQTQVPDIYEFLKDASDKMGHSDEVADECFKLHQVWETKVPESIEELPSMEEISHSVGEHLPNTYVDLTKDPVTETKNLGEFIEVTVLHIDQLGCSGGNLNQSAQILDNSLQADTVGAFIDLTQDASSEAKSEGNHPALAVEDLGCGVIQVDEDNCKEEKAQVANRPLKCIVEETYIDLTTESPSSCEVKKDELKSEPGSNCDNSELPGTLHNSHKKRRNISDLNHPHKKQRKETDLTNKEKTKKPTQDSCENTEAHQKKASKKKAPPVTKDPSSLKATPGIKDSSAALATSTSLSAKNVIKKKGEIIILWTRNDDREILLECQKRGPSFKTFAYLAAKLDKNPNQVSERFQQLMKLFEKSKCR
UniProt Q86WR0: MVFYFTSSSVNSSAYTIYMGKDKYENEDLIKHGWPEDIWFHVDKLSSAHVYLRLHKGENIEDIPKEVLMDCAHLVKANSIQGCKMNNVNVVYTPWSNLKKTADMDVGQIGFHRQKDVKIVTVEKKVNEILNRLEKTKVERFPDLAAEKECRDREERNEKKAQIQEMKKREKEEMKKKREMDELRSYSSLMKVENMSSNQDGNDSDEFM
UniProt Q9H257: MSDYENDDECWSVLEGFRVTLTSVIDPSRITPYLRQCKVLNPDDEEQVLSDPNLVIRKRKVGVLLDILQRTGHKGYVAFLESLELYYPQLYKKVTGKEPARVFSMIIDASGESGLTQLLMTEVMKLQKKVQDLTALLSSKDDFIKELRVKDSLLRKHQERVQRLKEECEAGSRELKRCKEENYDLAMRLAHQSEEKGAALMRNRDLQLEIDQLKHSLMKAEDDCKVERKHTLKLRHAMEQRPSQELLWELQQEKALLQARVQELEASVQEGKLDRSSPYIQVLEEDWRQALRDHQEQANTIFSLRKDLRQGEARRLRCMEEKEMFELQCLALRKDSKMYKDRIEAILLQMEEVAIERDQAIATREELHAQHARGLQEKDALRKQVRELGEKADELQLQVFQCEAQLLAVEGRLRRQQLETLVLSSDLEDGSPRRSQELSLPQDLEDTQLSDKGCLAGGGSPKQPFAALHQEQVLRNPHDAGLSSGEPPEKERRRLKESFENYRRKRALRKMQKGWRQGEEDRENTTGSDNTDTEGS
UniProt Q6P1N0: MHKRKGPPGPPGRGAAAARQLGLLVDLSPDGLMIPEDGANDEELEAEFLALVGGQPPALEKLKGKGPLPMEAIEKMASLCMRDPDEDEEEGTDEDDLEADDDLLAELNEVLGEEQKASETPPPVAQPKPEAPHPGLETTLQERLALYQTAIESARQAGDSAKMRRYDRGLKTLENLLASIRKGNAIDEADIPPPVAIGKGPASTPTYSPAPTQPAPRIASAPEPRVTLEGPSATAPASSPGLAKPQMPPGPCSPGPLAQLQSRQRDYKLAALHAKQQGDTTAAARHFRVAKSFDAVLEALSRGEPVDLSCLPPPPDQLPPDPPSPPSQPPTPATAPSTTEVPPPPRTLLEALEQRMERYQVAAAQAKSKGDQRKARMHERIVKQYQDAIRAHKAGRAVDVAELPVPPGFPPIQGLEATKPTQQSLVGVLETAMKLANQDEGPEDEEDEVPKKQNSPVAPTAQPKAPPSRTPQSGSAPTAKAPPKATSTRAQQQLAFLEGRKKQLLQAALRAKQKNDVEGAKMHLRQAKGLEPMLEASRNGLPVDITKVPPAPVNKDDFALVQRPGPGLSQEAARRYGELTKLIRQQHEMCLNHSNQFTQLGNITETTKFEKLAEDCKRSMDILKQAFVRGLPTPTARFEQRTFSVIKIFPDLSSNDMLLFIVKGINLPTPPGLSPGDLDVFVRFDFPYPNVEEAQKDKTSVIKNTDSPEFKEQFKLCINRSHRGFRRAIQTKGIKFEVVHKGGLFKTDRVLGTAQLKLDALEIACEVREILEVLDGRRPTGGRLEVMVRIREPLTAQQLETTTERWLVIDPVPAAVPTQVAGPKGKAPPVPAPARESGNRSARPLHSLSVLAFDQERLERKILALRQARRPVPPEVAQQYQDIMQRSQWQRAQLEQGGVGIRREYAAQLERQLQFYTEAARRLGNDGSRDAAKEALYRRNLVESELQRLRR
UniProt P49662: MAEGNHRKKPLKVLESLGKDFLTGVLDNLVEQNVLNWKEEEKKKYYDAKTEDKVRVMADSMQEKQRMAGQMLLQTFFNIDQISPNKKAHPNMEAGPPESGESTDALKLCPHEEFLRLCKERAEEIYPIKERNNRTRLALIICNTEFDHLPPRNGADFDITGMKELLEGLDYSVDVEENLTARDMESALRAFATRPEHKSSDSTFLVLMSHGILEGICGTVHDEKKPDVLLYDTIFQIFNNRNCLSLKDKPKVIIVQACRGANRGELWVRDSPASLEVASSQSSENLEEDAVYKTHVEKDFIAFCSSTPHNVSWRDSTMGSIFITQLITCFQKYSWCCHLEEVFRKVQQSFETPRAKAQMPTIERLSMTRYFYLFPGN
UniProt P78371: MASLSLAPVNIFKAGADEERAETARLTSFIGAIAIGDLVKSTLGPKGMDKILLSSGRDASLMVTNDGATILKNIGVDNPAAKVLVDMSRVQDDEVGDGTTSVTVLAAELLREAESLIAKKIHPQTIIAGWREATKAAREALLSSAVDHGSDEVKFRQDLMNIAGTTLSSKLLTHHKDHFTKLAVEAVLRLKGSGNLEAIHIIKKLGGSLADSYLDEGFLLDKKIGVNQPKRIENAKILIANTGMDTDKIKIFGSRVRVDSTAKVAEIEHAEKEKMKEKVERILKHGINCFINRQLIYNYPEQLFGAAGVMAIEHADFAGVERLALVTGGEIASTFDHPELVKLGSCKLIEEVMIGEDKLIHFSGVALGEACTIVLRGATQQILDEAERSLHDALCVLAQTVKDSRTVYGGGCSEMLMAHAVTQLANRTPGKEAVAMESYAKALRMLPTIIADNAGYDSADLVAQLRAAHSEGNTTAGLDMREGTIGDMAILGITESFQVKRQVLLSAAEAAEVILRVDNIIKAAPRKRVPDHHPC
UniProt Q9Y6W3: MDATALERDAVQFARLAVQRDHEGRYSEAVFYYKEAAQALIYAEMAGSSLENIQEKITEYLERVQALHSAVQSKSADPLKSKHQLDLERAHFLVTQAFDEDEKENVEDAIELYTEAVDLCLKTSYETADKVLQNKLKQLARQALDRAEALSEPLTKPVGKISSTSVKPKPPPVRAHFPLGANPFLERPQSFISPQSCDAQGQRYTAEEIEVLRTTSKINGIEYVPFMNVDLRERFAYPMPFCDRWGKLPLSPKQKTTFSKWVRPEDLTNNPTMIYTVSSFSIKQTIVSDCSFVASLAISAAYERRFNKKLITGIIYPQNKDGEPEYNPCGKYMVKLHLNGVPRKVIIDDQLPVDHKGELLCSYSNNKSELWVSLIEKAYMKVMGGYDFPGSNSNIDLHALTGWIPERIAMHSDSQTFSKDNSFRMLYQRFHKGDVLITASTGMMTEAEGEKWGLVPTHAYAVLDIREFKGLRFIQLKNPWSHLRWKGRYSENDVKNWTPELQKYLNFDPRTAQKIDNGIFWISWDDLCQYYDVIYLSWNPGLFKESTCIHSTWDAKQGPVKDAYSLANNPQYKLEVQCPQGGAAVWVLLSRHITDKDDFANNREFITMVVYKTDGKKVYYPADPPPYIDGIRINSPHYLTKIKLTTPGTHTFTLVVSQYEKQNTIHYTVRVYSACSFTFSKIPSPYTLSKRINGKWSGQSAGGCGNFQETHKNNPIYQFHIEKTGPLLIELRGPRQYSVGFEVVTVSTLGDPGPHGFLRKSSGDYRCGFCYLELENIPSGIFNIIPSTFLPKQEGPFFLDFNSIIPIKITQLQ
UniProt P42574: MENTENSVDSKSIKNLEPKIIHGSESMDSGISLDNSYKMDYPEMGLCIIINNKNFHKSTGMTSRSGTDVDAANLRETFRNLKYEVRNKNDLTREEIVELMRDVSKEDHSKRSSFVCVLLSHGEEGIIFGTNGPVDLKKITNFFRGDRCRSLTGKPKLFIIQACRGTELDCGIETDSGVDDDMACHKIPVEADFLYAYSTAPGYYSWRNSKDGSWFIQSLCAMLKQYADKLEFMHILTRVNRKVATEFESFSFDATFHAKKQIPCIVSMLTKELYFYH
UniProt P83916, whole entry, looked up: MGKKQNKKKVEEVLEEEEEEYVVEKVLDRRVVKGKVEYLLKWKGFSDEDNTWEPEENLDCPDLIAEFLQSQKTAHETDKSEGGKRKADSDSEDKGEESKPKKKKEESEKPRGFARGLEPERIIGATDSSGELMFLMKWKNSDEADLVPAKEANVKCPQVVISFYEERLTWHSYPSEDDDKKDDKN

Compound: CC1Cc2ccccc2N1C(=O)C1CCCN(C1)C(=O)CCl (mixture of isomers) [TRIM25 ligand 11 (diastereomer mixture)]
Assay: probe-labelled cysteine peptide fold change vs DMSO (competition) (log2 fold change); higher = less target engagement (more negative = stronger competition)
Conditions: THP-1, incubation time: 4 h
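Further: competitive chemoproteomic profiling in live THP-1 cells with an iodoacetamide desthiobiotin (IA-DTB) probe, comparing probe-labelled peptide intensities in compound-treated cells against DMSO-treated controls.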

Target	probe-labelled cysteine peptide fold change (10 µM)	probe-labelled cysteine peptide fold change (50 µM)
CAPNS1_P04632_232_RYSDESGNMDFDNFISCLVR (UniProt P04632)	0.0771	0.109
CCAR2_Q8N163_754_VVTQNICQYR (UniProt Q8N163)	-0.0471	-0.0573
CAT_P04040_460_LCENIAGHLK (UniProt P04040)	-0.0735	-0.0901
CAT_P04040_460_RLCENIAGHLK (UniProt P04040)	-0.043	0.0536
CAPN1_P07384_11_SEEIITPVYCTGVSAQVQK (UniProt P07384)	-0.164	-0.105
CAPN15_O75808_101_GSCQEEAGPVR (UniProt O75808)	-0.0901	-0.228
CARD6_Q9BX69_292_DVLLCLNMDR (UniProt Q9BX69)	-0.153	-0.113
CCDC77_Q9BR77_164_IQNLLALVGTDAGEVTYFCK (UniProt Q9BR77)	0.174	-0.335
CAST_P20810-2_228_ELLAKPIGPDDAIDALSSDFTCGSPTAAGK (UniProt P20810)	0.172	-0.23
CASP8AP2_Q9UKL3_1647_MGHSDEVADECFK (UniProt Q9UKL3)	-0.124	-0.394
CCDC25_Q86WR0_83_ANSIQGCK (UniProt Q86WR0)	-0.0966	-0.0368
CBX2_Q14781_89_KLTAMSSCSR (UniProt Q14781)	-0.13	-0.306
CCDC58_Q4VC31_74_NCIAQTSAVVK (UniProt Q4VC31)	-0.0247	0.0677
CARD9_Q9H257_402_ADELQLQVFQCEAQLLAVEGR (UniProt Q9H257)	-0.0288	0.0818
CAPZB_P47756_206_DETVSDCSPHIANIGR (UniProt P47756)	0.0274	-0.045
CCAR2_Q8N163_644_PLSSGGEEEEKPRGEASEDLCEMALDPELLLLRDDGEEEFAGAK (UniProt Q8N163)	0.365	0.0832
CC2D1A_Q6P1N0_590_QQHEMCLNHSNQFTQLGNITETTKFEK (UniProt Q6P1N0)	-0.186	-0.079
CBFA2T3_O75081_423_CQEADREELNHWAR (UniProt O75081)	0.0527	0.0776
CBX8_Q9HC52_261_RQDSDLVQCGVTSPSSAEATGK (UniProt Q9HC52)	0.151	-0.171
CCDC97_Q96F63_122_TGLREEHLACFGHVR (UniProt Q96F63)	-0.0204	0.208
CASP8_Q14790_287_NGTHLDAGALTTTFEELHFEIKPHDDCTVEQIYEILK (UniProt Q14790)	0.00791	0.0884

Target	probe-labelled cysteine peptide fold change (10 µM)	probe-labelled cysteine peptide fold change (50 µM)
CASP8_Q14790_345_CPSLAGKPK (UniProt Q14790)	-0.0611	-0.0798
CAPZA2_P47755_111_EATDPRPCEVENAVESWR (UniProt P47755)	0.0298	0.0405
CASP4_P49662_336+337_YSWCCHLEEVFR (UniProt P49662)	-0.294	-0.276
CCT2_P78371_395_SLHDALCVLAQTVK (UniProt P78371)	0.0365	-0.0967
CASP8_Q14790_236_GYCLIINNHNFAK (UniProt Q14790)	-0.0193	-0.0456
CAP1_Q01518_416_VQVMGKVPTISINKTDGCHAYLSK (UniProt Q01518)	-0.472	-0.386
CANX_P27824_160_LNKPFLFDTKPLIVQYEVNFQNGIECGGAYVK (UniProt P27824)	-0.123	-0.202
CAPNS1_P04632_144_TDGFGIDTCR (UniProt P04632)	-0.0564	0.074
CAP1_Q01518_93_ALLVTASQCQQPAENK (UniProt Q01518)	0.00612	-0.135
CAPN7_Q9Y6W3_704_WSGQSAGGCGNFQETHK (UniProt Q9Y6W3)	0.0509	-0.00887
CARD19_Q96LW7_63_LCDLLSHLQR (UniProt Q96LW7)	-0.191	-0.00311
CCT3_P49368_372_ACTILLR (UniProt P49368)	0.159	0.0493
CAPZA2_P47755_157_KIDGQQTIIACIESHQFQAK (UniProt P47755)	0.0477	0.155
CAPN7_Q9Y6W3_361_KVIIDDQLPVDHKGELLCSYSNNK (UniProt Q9Y6W3)	-0.139	-0.115
CAPN2_P17655_405_LEEEDEDEEDGESGCTFLVGLIQK (UniProt P17655)	-0.0215	-0.085
CBL_P22681_572_RPLPCTPGDCPSR (UniProt P22681)	-0.0794	0.154
CASP4_P49662_337_YSWCCHLEEVFRK (UniProt P49662)	0.136	0.235
CBX3_Q13185_177_LTWHSCPEDEAQ (UniProt Q13185)	-0.129	-0.248
CCAR1_Q8IX12_465_SCALAEDPQELRDGFQHPAR (UniProt Q8IX12)	-0.476	-0.0931
CAPNS1_P04632_190_SGTICSSELPGAFEAAGFHLNEHLYNMIIRR (UniProt P04632)	-0.129	0.116
CCDC25_Q86WR0_71_EVLMDCAHLVK (UniProt Q86WR0)	0.108	0.13

Target	probe-labelled cysteine peptide fold change (10 µM)	probe-labelled cysteine peptide fold change (50 µM)
CANX_P27824_360+366_CESAPGCGVWQRPVIDNPNYK (UniProt P27824)	-0.0154	0.0709
CCAR1_Q8IX12_937_DLLMAFVYFDQSHCGYLLEK (UniProt Q8IX12)	0.653	0.739
CBLL1_Q75N03_133_HVFCYDCAILHEK (UniProt Q75N03)	-0.00229	0.0558
CASP3_P42574_116_RSSFVCVLLSHGEEGIIFGTNGPVDLKK (UniProt P42574)	-0.187	0.0265
CAPN1_P07384_417_IRLDETDDPDDYGDRESGCSFVLALMQK (UniProt P07384)	-0.0697	-0.14
CCP110_O43303_174_QCDSSNISHVENEAFPK (UniProt O43303)	-0.106	-0.109
CASP8AP2_Q9UKL3_174_SPHLDDCSK (UniProt Q9UKL3)	0.238	0.155
CC2D1B_Q5T0F9_86_LAADCMR (UniProt Q5T0F9)	-0.187	-0.334
CAT_P04040_377_LGPNYLHIPVNCPYR (UniProt P04040)	0.00564	0.0332
CASP2_P42575_270_VTDSCIVALLSHGVEGAIYGVDGK (UniProt P42575)	-0.0845	0.0634
CASP9_P55211_187_TGSNIDCEK (UniProt P55211)	-0.136	0.00846
CBX1_P83916_156_CPQVVISFYEER (UniProt P83916)	0.0723	-0.0323
CASP2_P42575_30_ILGVCGMHPHHQETLKK (UniProt P42575)	-0.263	-0.383
CARS_P49589-3_81_HIEALLGSPCGK (UniProt P49589)	-0.0595	-0.0785
CCDC22_O60826_567_YLAALHENCSQLIQTIEDTGTIMR (UniProt O60826)	0.518	0.529
CAPZA1_P52907_124_ESCDSALR (UniProt P52907)	-0.0541	0.036
CASP8_Q14790-2_188_GEELCGVMTISDSPR (UniProt Q14790)	0.134	0.085
CAPG_P40121_77_DEQGACAVLAVHLNTLLGERPVQHR (UniProt P40121)	0.0244	-0.0315
CCAR2_Q8N163_644_GEASEDLCEMALDPELLLLR (UniProt Q8N163)	0.0494	-0.135
CASP3_P42574_220_DGSWFIQSLCAMLK (UniProt P42574)	-0.306	-0.13
CASP2_P42575_179_DGPVCLQVKPCTPEFYQTHFQLAYR (UniProt P42575)	0.13	-0.0808

Target	probe-labelled cysteine peptide fold change (10 µM)	probe-labelled cysteine peptide fold change (50 µM)
CANX_P27824_360+366_CESAPGCGVWQR (UniProt P27824)	0.12	0.148
CCAR2_Q8N163_515_RNAETPEATTQQETDTDLPEAPPPPLEPAVIARPGCVNLSLHGIVEDR (UniProt Q8N163)	0.0498	-0.0585
CCAR1_Q8IX12_376_FSLDCPSCDMMELR (UniProt Q8IX12)	-0.107	0.0228
CARD9_Q9H257_178_CKEENYDLAMR (UniProt Q9H257)	-0.0469	0.112
CARS2_Q9HA77_387_GQLACGSVR (UniProt Q9HA77)	0.0928	0.0168
CASP2_P42575_305_LLQLQEVFQLFDNANCPSLQNKPK (UniProt P42575)	-0.092	-0.263
CARS2_Q9HA77_526_QPLLEACDTLR (UniProt Q9HA77)	0.0288	0.297
CCNK_O75909_99_YVTGACCLFLAGK (UniProt O75909)	0.1	0.32
CCT2_P78371_289_HGINCFINR (UniProt P78371)	-0.0334	0.0506
CASKIN2_Q8WXE0_185_VAQLLLNSHLCVALLEGEAKDPCDPNYTTPLHLAAK (UniProt Q8WXE0)	0.081	-0.347
CBR1_P16152_226_ILLNACCPGWVR (UniProt P16152)	-0.00652	-0.0415
CCAR2_Q8N163_644_GEASEDLCEMALDPELLLLRDDGEEEFAGAK (UniProt Q8N163)	0.182	0.0749
CAST_P20810_661_KPADDQDPIDALSGDLDSCPSTTETSQNTAK (UniProt P20810)	-0.148	-0.245
CCNB2_O95067_131_IEDIDNEDWENPQLCSDYVK (UniProt O95067)	0.105	0.113
CBFA2T2_O43439_357_HLDHALNCIMEMVEK (UniProt O43439)	-0.043	-0.0541
CCDC88B_A6NC98_1222_ESNQQLDLSACR (UniProt A6NC98)	-0.0803	-0.243
CAPN1_P07384_590_GFSLESCR (UniProt P07384)	0.0866	-0.0715
CC2D1A_Q6P1N0_765_LDALEIACEVR (UniProt Q6P1N0)	0.184	0.225
CCT3_P49368_398_NLQDAMQVCR (UniProt P49368)	-0.0864	-0.151

Copied from the list.
probe-labelled cysteine peptide fold change (50 µM), CCT2_P78371_289_HGINCFINR (UniProt P78371) is entered as 0.0506
probe-labelled cysteine peptide fold change (50 µM), CC2D1A_Q6P1N0_765_LDALEIACEVR (UniProt Q6P1N0) is entered as 0.225
probe-labelled cysteine peptide fold change (10 µM), CASKIN2_Q8WXE0_185_VAQLLLNSHLCVALLEGEAKDPCDPNYTTPLHLAAK (UniProt Q8WXE0) is entered as 0.081
probe-labelled cysteine peptide fold change (50 µM), CARS2_Q9HA77_387_GQLACGSVR (UniProt Q9HA77) is entered as 0.0168
